The results in this text go back to the supplement of paper PMC10849652.

Amino acid sequences for entries named in this document (tags omitted). A change or cut given only in a name is not applied to a line headed by its entry.
UniProt Q9NRZ7: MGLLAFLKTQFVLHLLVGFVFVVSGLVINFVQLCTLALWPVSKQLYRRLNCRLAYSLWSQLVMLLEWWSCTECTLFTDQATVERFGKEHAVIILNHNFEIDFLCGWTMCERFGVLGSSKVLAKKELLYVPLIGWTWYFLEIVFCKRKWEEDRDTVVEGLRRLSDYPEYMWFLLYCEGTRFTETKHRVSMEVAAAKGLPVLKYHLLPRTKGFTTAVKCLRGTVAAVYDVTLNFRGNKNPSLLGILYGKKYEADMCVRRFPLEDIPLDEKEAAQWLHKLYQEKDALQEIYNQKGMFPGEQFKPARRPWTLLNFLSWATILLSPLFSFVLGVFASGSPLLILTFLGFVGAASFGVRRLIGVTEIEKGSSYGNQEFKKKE
UniProt Q9BV57: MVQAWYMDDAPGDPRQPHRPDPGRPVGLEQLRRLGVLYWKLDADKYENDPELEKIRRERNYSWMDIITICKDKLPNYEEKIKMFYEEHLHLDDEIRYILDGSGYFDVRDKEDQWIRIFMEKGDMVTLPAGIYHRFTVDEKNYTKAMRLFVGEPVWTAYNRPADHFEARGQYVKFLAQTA
UniProt P11766: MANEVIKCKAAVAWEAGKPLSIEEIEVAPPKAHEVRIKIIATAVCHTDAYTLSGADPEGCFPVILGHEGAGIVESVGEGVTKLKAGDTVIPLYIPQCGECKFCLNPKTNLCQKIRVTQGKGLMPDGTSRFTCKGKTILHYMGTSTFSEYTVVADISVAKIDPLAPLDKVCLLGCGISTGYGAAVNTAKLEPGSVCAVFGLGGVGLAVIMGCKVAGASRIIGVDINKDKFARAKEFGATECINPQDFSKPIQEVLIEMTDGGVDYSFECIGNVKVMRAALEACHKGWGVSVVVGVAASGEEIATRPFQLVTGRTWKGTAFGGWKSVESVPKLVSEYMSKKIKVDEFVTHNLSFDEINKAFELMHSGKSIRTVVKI
UniProt P42330: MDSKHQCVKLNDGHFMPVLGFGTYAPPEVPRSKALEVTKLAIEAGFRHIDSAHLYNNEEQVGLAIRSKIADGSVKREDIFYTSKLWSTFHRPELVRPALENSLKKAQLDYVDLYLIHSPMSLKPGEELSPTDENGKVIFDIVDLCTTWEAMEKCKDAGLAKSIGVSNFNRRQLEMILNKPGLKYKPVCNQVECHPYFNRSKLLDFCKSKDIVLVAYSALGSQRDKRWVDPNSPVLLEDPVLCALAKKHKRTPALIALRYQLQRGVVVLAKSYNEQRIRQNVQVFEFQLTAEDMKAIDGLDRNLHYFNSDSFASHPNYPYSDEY
UniProt Q96BJ3: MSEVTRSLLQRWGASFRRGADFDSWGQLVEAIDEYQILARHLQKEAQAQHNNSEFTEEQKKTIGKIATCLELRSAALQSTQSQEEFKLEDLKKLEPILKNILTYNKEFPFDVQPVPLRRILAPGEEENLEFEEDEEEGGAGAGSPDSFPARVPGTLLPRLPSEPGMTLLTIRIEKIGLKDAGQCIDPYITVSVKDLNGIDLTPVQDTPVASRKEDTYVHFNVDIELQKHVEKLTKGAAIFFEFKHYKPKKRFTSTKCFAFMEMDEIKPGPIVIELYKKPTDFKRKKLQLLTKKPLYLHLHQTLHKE
UniProt P55196: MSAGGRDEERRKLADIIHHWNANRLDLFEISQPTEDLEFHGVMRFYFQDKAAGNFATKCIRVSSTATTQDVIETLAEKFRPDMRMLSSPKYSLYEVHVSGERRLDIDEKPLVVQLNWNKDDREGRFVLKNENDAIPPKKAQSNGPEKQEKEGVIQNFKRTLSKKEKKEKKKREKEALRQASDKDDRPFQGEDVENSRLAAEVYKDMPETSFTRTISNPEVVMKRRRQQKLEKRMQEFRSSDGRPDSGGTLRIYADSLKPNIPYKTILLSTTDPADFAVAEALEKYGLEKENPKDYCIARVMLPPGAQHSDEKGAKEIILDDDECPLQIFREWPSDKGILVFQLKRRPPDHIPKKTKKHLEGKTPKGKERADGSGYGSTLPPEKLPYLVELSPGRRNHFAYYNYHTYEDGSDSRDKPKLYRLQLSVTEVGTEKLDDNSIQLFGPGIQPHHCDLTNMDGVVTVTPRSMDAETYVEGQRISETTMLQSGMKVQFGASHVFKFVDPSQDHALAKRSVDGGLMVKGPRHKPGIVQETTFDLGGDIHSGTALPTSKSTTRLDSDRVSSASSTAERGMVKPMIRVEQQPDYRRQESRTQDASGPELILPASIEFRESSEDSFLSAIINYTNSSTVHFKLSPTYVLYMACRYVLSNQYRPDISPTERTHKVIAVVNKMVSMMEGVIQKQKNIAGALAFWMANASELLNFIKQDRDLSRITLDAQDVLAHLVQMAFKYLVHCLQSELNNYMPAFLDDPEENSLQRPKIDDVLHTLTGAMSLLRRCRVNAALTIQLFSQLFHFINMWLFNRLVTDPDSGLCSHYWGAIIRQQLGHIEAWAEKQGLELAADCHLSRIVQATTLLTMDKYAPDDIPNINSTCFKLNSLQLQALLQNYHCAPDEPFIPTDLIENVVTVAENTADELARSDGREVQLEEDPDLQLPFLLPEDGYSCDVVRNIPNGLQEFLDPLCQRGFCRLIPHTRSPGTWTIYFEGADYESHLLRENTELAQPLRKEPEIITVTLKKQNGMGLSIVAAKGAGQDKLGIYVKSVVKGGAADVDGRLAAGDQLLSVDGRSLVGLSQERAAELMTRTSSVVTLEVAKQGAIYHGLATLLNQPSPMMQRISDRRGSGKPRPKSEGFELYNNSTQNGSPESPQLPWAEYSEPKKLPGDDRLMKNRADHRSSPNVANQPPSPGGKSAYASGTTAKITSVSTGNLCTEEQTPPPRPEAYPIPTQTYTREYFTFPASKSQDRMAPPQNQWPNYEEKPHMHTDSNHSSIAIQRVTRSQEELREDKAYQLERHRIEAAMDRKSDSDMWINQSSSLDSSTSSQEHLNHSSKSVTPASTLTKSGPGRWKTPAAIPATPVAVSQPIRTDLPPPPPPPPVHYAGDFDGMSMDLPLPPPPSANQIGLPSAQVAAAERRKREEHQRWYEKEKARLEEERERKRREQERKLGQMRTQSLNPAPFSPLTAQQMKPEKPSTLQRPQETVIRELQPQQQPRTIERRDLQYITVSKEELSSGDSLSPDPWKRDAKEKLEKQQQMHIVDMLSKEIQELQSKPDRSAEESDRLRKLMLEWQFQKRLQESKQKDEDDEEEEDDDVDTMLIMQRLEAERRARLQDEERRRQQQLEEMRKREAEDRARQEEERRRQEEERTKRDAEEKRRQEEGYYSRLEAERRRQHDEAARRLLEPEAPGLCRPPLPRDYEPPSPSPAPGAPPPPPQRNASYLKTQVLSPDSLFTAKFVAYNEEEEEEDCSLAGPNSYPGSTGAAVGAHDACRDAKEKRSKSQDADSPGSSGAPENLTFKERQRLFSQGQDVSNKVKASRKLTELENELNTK
UniProt Q9UHX3: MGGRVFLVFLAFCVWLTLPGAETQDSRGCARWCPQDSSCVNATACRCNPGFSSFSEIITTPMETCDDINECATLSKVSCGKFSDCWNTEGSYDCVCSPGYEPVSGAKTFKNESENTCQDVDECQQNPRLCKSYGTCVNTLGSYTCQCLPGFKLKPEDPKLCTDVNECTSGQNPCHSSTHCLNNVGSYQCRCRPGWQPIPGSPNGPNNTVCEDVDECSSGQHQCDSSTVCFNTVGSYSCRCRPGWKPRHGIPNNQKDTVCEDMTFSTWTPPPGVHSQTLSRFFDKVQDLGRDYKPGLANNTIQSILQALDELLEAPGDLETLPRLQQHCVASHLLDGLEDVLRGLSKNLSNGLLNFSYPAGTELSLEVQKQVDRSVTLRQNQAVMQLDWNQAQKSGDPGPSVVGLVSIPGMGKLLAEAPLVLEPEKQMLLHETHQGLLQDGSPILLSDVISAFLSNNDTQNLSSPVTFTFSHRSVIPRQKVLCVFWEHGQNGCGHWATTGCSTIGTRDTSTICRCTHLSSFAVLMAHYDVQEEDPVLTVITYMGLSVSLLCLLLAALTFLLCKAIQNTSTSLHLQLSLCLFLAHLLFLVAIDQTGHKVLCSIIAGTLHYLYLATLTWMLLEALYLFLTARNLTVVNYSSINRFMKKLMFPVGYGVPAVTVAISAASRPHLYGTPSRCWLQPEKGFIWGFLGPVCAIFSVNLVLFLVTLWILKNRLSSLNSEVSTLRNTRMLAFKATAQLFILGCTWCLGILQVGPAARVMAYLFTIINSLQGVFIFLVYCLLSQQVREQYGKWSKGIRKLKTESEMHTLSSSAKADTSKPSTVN
UniProt Q562R1, whole entry, looked up: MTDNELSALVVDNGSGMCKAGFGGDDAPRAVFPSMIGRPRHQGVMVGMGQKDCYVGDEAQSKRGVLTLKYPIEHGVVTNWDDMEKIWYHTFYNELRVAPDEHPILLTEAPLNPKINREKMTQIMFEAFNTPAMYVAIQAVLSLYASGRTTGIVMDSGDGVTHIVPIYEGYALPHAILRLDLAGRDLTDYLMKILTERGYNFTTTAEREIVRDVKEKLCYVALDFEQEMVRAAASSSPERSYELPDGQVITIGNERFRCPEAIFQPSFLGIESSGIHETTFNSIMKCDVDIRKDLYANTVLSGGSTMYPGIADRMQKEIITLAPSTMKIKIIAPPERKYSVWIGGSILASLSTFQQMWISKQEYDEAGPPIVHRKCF
UniProt Q96SZ5, whole entry, looked up: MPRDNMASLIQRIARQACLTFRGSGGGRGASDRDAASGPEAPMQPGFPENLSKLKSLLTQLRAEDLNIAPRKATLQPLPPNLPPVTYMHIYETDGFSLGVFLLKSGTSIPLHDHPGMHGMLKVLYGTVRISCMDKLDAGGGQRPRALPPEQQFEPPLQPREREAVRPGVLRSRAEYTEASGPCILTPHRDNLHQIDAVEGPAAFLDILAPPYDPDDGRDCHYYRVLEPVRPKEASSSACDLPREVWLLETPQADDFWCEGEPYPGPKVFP
UniProt P00568: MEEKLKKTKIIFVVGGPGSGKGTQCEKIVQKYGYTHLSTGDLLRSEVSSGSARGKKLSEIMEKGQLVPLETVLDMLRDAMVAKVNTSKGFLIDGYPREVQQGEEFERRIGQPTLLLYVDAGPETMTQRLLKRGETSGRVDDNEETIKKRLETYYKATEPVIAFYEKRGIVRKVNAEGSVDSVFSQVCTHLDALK
UniProt Q9UEY8: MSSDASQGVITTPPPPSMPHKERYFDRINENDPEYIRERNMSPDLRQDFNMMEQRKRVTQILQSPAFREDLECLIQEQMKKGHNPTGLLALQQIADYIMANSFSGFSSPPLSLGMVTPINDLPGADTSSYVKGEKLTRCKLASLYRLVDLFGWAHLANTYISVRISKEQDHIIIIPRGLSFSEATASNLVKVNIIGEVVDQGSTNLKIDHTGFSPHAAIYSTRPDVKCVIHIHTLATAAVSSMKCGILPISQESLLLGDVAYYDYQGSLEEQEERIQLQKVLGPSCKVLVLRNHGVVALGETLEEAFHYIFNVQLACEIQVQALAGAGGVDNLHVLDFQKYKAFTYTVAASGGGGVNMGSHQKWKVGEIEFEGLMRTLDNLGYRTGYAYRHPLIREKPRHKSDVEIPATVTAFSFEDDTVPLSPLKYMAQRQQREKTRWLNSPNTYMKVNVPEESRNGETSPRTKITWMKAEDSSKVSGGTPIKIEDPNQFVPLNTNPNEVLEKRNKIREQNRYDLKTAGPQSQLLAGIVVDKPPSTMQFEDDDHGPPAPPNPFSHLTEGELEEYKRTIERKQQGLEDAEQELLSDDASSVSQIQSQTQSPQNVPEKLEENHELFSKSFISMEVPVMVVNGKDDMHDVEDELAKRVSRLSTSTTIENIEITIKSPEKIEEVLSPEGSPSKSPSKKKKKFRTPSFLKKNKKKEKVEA
UniProt P35612: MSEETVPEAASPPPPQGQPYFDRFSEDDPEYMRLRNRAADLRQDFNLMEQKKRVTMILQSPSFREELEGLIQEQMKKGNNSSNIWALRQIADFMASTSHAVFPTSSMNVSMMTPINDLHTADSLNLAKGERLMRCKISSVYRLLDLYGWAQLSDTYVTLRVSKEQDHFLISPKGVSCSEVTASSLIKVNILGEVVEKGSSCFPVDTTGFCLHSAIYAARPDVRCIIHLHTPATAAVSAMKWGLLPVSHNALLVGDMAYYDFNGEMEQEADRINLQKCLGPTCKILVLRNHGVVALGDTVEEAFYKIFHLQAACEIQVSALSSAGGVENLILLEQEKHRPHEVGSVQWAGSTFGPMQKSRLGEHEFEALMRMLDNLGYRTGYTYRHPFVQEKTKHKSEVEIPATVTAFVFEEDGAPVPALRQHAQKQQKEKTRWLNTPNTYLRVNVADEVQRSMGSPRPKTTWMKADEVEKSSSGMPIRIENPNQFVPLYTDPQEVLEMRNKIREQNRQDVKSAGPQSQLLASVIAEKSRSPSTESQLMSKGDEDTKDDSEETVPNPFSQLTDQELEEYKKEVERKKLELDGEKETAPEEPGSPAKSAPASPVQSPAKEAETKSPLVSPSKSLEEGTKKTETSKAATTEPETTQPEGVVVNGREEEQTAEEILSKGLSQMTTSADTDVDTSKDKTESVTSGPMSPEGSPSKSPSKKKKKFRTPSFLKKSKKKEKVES

Common to all, as to assay: log2 fold change, soluble protein after heating vs DMSO (PISA); higher = thermal stabilisation; K562 lysate, 10 uM; active = over 0.2 and 3.5 SD of the protein, either way, in both replicates (recomputed)
Compound in assay [1]: NCC(=O)Nc1ccc(-n2nc(C(F)(F)F)cc2-c2ccc3c(ccc4ccccc43)c2)cc1
In outline:
(§1)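 The values are log-two fold changes in thermal stability compared with solvent controls and come from duplicates. They were obtained by TMTpro 16plex LC-MS/MS, with channel sums equalised, on the supernatant after 21,000xg for 90 min. That supernatant came from crude K562 extract at 1 mg/mL protein treated with 10 μM compound for 30 min, heated for 3 min across 48°C-58°C, pooled and brought to 0.5% NP-40 at 4°C.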

Compound in a further assay: O=C(CCCCCCC(=O)Nc1ccccc1)NO [vorinostat]
In outline:
as §1

Compound in a further assay: O=C(O)c1ccc2c(c1)nc(Nc1cccc(Cl)c1)c1ccncc12 [silmitasertib]
In outline: as §1

Compound in assay [2]: O=C1NC(=O)C(c2cnc3ccccn23)=C1c1cn2c3c(cc(F)cc13)CN(C(=O)N1CCCCC1)CC2
In a few lines:
as §1

Compound in a further assay: c1cn2cc(-c3ccc4cn[nH]c4c3)nc(Nc3ccc(N4CCOCC4)cc3)c2n1 [entospletinib]
In a few lines:
as §1

The list shows a part of the results.

AGO4 (UniProt Q9HCK5): the log2 fold change in assay [1] is inactive: -0.007; with vorinostat, inactive: 0.09; with silmitasertib, inactive: -0.018; in assay [2], inactive: -0.006; in the assay with entospletinib, inactive: -0.013.

Take AK4 (UniProt P27144): the log2 fold change was inactive: -0.051 in assay [1]; inactive: 0.037 in the assay with vorinostat; inactive: -0.008 in the assay with silmitasertib; inactive: -0.016 in assay [2]; inactive: -0.02 with entospletinib.

For the target AGPAT3 isoform 3 (UniProt Q9NRZ7), the log2 fold change was inactive: -0.044 in assay [1]; inactive: -0.21 in the assay with vorinostat; inactive: 0.028 in the assay with silmitasertib; inactive: 0.015 in assay [2]; inactive: -0.025 in the assay with entospletinib.

Consider ADI1 (UniProt Q9BV57), for which the log2 fold change in assay [1] is inactive: -0.043; in the assay with vorinostat it was inactive: 0.029; with silmitasertib, inactive: 0.008; in assay [2], inactive: -0.047; with entospletinib, inactive: -0.027.

In the case of AHNAK (UniProt Q09666), the log2 fold change in assay [1] was inactive: 0.014; with vorinostat it was inactive: 0.064; with silmitasertib, inactive: -0.02; in assay [2], inactive: 0.009; with entospletinib, inactive: -0.001.

Take AIMP1 isoform 2 (UniProt Q12904): the log2 fold change in assay [1] was inactive: -0.01; with vorinostat it was active: -0.235; with silmitasertib, inactive: 0.02; in assay [2], inactive: 0.007; with entospletinib it was inactive: 0.02.

For ADH5 (UniProt P11766), the log2 fold change is inactive: 0.014 in assay [1]; inactive: 0.113 with vorinostat; inactive: -0.015 with silmitasertib; inactive: -0.001 in assay [2]; inactive: 0.009 with entospletinib.

Regarding AFTPH isoform 9 (UniProt Q6ULP2), the log2 fold change in assay [1] was inactive: 0.017; with vorinostat, inactive: -0.031; with silmitasertib, inactive: 0.018; in assay [2] it was inactive: -0.008; with entospletinib it was inactive: 0.

For AKR1C3 (UniProt P42330), the log2 fold change was inactive: -0.009 in assay [1]; active: 0.546 with vorinostat; inactive: 0.044 with silmitasertib; inactive: 0.009 in assay [2]; inactive: 0.059 in the assay with entospletinib.

Take AGL (UniProt P35573): the log2 fold change in assay [1] is inactive: 0; with vorinostat it was active: -0.275; in the assay with silmitasertib it was inactive: 0.035; in assay [2], inactive: 0.001; in the assay with entospletinib, inactive: -0.018.

With AK2 (UniProt P54819), the log2 fold change in assay [1] was inactive: 0.024; with vorinostat, inactive: 0.159; with silmitasertib, inactive: 0.007; in assay [2], inactive: -0.005; with entospletinib, inactive: 0.012.

Consider AIDA (UniProt Q96BJ3), for which the log2 fold change in assay [1] is inactive: 0.077; with vorinostat, inactive: 0.099; in the assay with silmitasertib, inactive: -0.001; in assay [2] it was inactive: -0.016; with entospletinib it was inactive: -0.001.

For the target AFDN isoform 1 (UniProt P55196), the log2 fold change in assay [1] is inactive: 0.024; with vorinostat it was inactive: -0.115; with silmitasertib, inactive: -0.001; in assay [2] it was inactive: -0.032; in the assay with entospletinib, inactive: 0.013.

As to ADGRE2 (UniProt Q9UHX3), the log2 fold change in assay [1] is inactive: -0.045; in the assay with vorinostat it was inactive: 0.195; in the assay with silmitasertib, inactive: -0.041; in assay [2], inactive: -0.013; in the assay with entospletinib, inactive: -0.024.

Turning to ACTBL2 (UniProt Q562R1), the log2 fold change in assay [1] was inactive: -0.116; in the assay with vorinostat it was inactive: -0.154; in the assay with silmitasertib, inactive: 0.039; in assay [2], inactive: 0.019; in the assay with entospletinib, inactive: -0.083.

On to AGPAT2 (UniProt O15120), for which the log2 fold change in assay [1] is inactive: -0.234; with vorinostat, inactive: 0.104; in the assay with silmitasertib, inactive: -0.026; in assay [2], inactive: -0.052; with entospletinib it was inactive: 0.063.

As to ADO (UniProt Q96SZ5), the log2 fold change in assay [1] was inactive: 0.021; in the assay with vorinostat, inactive: -0.058; with silmitasertib it was inactive: 0.073; in assay [2] it was inactive: -0.014; in the assay with entospletinib it was inactive: 0.025.

Take AK1 (UniProt P00568): the log2 fold change in assay [1] was inactive: 0.005; in the assay with vorinostat, inactive: 0.075; with silmitasertib, inactive: 0.001; in assay [2], inactive: -0.001; with entospletinib it was inactive: 0.022.

ACSL1 (UniProt P33121): the log2 fold change in assay [1] was inactive: -0.092; with vorinostat, active: -0.221; with silmitasertib it was inactive: 0.138; in assay [2], inactive: -0.031; with entospletinib, inactive: -0.027.

Consider ACSS2 isoform 2 (UniProt Q9NR19), for which the log2 fold change in assay [1] was inactive: -0.046; with vorinostat it was inactive: -0.215; in the assay with silmitasertib, inactive: 0.019; in assay [2] it was inactive: -0.01; in the assay with entospletinib, inactive: -0.025.

With AFDN (UniProt J3KN01), the log2 fold change is inactive: 0.006 in assay [1]; inactive: -0.053 in the assay with vorinostat; inactive: 0.022 with silmitasertib; inactive: -0.028 in assay [2]; inactive: -0.013 with entospletinib.

Take ADD3 (UniProt Q9UEY8): the log2 fold change is inactive: 0.008 in assay [1]; inactive: 0.029 with vorinostat; inactive: -0.04 in the assay with silmitasertib; inactive: -0.042 in assay [2]; inactive: -0.024 in the assay with entospletinib.

For ADD2 (UniProt P35612), the log2 fold change in assay [1] is inactive: -0.007; in the assay with vorinostat, inactive: 0.082; in the assay with silmitasertib, inactive: -0.001; in assay [2] it was inactive: -0.016; in the assay with entospletinib, inactive: 0.
